Experimental data from PMC11615771.
For at least one entry, the source does not settle the construct or the ends of the probe. A negative result means that nothing was seen under these conditions.

Tests used:
[1] = system: GST-GhNFYA5; experiment: competition with a labelled probe; settings: unlabeled, EMSA: 2 ug GST-GhNFYA5, EMSA/Gel-Shift binding buffer (Beyotime GS005; composition, salt and pH not stated), 30 min, room temperature, 6.5% polyacrylamide gel, recombinant protein, protein details: GST (N-terminal, pGEX-4T)
[2] = system: GST-GhNFYA5; experiment: EMSA; settings: 2 ug protein; EMSA: 2 ug GST-GhNFYA5, EMSA/Gel-Shift binding buffer (Beyotime GS005; composition, salt and pH not stated), 30 min, room temperature, 6.5% polyacrylamide gel; recombinant protein; protein details: GST (N-terminal, pGEX-4T); label: biotin (F and R strands)

| Sequence | binding result [2] | other results |
| --- | --- | --- |
| ATAGAATTCACATTAATTACACTTACAAATGGACCACCAATATACTTATAATGCC (double strand) [Comp probe (unlabeled Probe1)] | – | binding result ([1]; 100x and 200x excess over labeled Probe1): binds |
| ATAGAATTCACATTAATTACACTTACAAATGGACCACCAATATACTTATAATGCC (double strand) [Probe1 GhOSM1 promoter CCAAT] | binds | – |
| ATAGAATTCACATTAATTACACTTACAAATGGACCACCCCTATACTTATAATGCC (double strand) [Probe3 CCCCT mutant] | no binding | – |
| ATAGAATTCACATTAATTACACTTACAAATGGACCACCCCTATACTTATAATGCC (double strand) [mComp mutant probe (unlabeled)] | – | binding result ([1]; 100x and 200x excess over labeled Probe1, did not compete): no binding |
| ATAGAATTCACATTAATTACACTTACAAATGGACCACCGATATACTTATAATGCC (double strand) [Probe2 GbOSM1 promoter CCGAT] | no binding | – |
